Measurements taken from paper PMC12670160, “A drug-repurposing screen of FDA- and EMA-approved drugs identifies two NF-κB inhibitors active against eumycetoma” (Journal of Antimicrobial Chemotherapy, 2025).
Where a name gives a salt, the structure may show the parent alone. About 130 (2.5%) of roughly 5,300 compounds showed an effect of 50% or more. This is one part of the list. Peptide text beside a SMILES is read from it.

system: M. mycetomatis strain mm55; details: primary screen, metabolic activity vs growth control; 96 h, 2 µM; inhibitor

| Compound | % viability [%] |
| --- | --- |
| COc1cc(C2Oc3ccc(C4Oc5cc(O)cc(O)c5C(=O)C4O)cc3OC2CO)ccc1O (stereo not shown) [ONC0005196, silymarin silybin b] | 144.4 |
| CC(=O)NC[C@H]1CN(c2ccc(N3CCOCC3)c(F)c2)C(=O)O1 [ONC0002450, linezolid] | 98.01 |
| CCCCC1(C2CCCC2)Cc2cc(OCCCC(=O)O)c(Cl)c(Cl)c2C1=O (stereo not shown) [ONC0002519, dcpib] | 87.12 |
| OC[C@H]1O[C@@H](O[C@@H]2[C@H](O)[C@@H](O)[C@H](O[C@H]3[C@H](O)[C@@H](O)C(O)O[C@@H]3CO)O[C@@H]2CO)[C@H](O)[C@@H](O)[C@H]1O (stereo partly shown) [ONC0004130, 4galactosyllactose] | 126.3 |
| Cc1nccn1CC1CCc2c(c3ccccc3n2C)C1=O (stereo not shown) [ONC0000588, ondansetron hydrochloride] | 115.3 |
| CCCCCCOc1ccccc1C(N)=O [ONC0002422, exalamide] | 94.69 |
| CC[C@H](CO)Nc1nc(Nc2cccc(-c3ccccn3)c2)c2ncn(C(C)C)c2n1 [ONC0001534, drf053r] | 59.61 |
| CC1(C)CC(O)CC(C)(C)N1O [ONC0003643, 4hydroxy2266tetramethylpiperidinooxy98free radical] | 64.34 |
| Cc1sc2c(c1C)C(c1ccc(Cl)cc1)=N[C@@H](CC(N)=O)c1nnc(C)n1-2 [ONC0001837, cpi203] | 75.28 |
| CCN(CC)CCNC(=O)c1ccc(N)cc1 [ONC0000458, procainamide hydrochloride] | 68.3 |
| NC[C@H](O)c1ccc(O)c(O)c1 [ONC0000378, norepinephrine tartrate] | 51.27 |
| O[C@H]1[C@H](O)[C@@H](O)CN2CC[C@H](O)[C@H]12 [ONC0001497, castanospermine] | 95.87 |
| CCc1cnc(N2CCC(c3nc(COc4ccc(-n5cnnn5)cc4)cs3)CC2)nc1 [ONC0002453, mbx2982] | 124.9 |
| c1cc(Nc2cc(C3CC3)[nH]n2)nc(Nc2ccc3[nH]cnc3c2)n1 [ONC0003009, apy29] | 67.52 |
| Cn1cc(-c2cnc3ccc4ccc(CS(=O)(=O)NCc5ccccn5)cc4c(=O)c3c2)cn1 [ONC0001114, mk8033] | 67.34 |
| Cc1c(-c2ccc(O)cc2)n(Cc2ccc(OCCN3CCCCCC3)cc2)c2ccc(O)cc12 [ONC0004785, bazedoxifene hcl] | 83.71 |
| C=C[C@]1(C)C[C@@H](OC(=O)CSC(C)(C)CNC(=O)[C@H](N)C(C)C)[C@]2(C)[C@H](C)CC[C@]3(CCC(=O)[C@H]32)[C@@H](C)[C@@H]1O [ONC0004321, valnemulin hcl] | 125.1 |
| CCOC1O[C@H]([C@@H](COCc2ccccc2)OCc2ccccc2)[C@H](OCc2ccccc2)[C@H]1O (stereo partly shown) [ONC0002940, tribenoside] | 57.62 |
| c1cc(CN2CCCCC2)cc(OCCCNc2nc3ccccc3s2)c1 [ONC0000821, zolantidine] | 82.97 |
| CCn1c2ccccc2c2cc(CNC)ccc21 [ONC0000215, phikan083] | 69.26 |
| CCc1cc2c(cc1CC)CC(NC[C@H](O)c1ccc(O)c3[nH]c(=O)ccc13)C2 [ONC0004520, indacaterol maleate] | 62.39 |

| Compound | % viability [%] |
| --- | --- |
| CNCC(O)c1ccc(O)c(O)c1 (stereo not shown) [ONC0004750, dladrenaline] | 116.3 |
| CCOC(=O)Nc1c[n+](N2CCOCC2)no1 [ONC0000636, molsidomine] | 75.33 |
| O=C(O)C1=C(CSc2nnnn2CS(=O)(=O)O)CS[C@@H]2[C@H](NC(=O)[C@H](O)c3ccccc3)C(=O)N12 [ONC0002051, cefonicid sodium] | 74.35 |
| Nc1nc(NC[C@H]2CC[C@H](CNS(=O)(=O)c3cccc4ccccc34)CC2)nc2ccccc12 [ONC0003045, cgp71683] | 64.43 |
| CCCOC(=O)c1ccc(O)cc1 [ONC0002901, propyl 4hydroxybenzoate] | 96.08 |
| Cc1ccc(-c2cc(C(F)(F)F)nn2-c2ccc(S(N)(=O)=O)cc2)cc1 [ONC0002376, celecoxib] | 59.93 |
| COc1ccc(C(=O)Nc2c(Cl)cncc2Cl)cc1OC1CCCC1 [ONC0004409, piclamilast] | 122.5 |
| O=C1C(Cl)=C(N2CCOCC2)C(=O)N1c1ccc(Cl)c(Cl)c1 [ONC0005217, ri1] | 119.3 |
| Cc1ccc(NC(=O)CCCCCC(=O)Nc2ccccc2N)cc1 [ONC0002492, tch106] | 70.05 |
| Nc1ccc(S(=O)(=O)Nc2nccs2)cc1 [ONC0000451, sulfathiazole] | 78.55 |
| O=C(O)c1cccc(-c2noc(-c3ccccc3F)n2)c1 [ONC0004778, ptc124 ataluren] | 74.44 |
| CC(CNC1CCCCC1)OC(=O)c1ccccc1 (stereo not shown) [ONC0002941, hexylcaine] | 55.94 |
| O=C1c2c(O)cccc2[C@H]([C@@H]2O[C@H](CO)[C@@H](O)[C@H](O)[C@H]2O)c2cc(CO)cc(O)c21 [ONC0002367, aloin] | 94.66 |
| O=C1Nc2ccccc2C2=NC(CN3CCN(c4ccccc4)CC3)CN12 (stereo not shown) [ONC0000247, 2pmdq] | 73.07 |
| CC1(C)S[C@@H]2[C@H](NC(=O)C(C(=O)O)c3ccsc3)C(=O)N2[C@H]1C(=O)O (stereo partly shown) [ONC0001093, ticarcillin disodium] | 54.99 |
| COCCNC(=O)COc1ccc(OCCNC[C@H](O)COc2ccccc2)cc1 [ONC0001450, zd7114] | 94.55 |
| CN[C@H]1CC[C@@H](c2ccc(Cl)c(Cl)c2)c2ccccc21 [ONC0004253, sertraline hydrochloride] | 76.5 |
| CC(C)NCC(O)c1ccc([N+](=O)[O-])cc1 (stereo not shown) [ONC0002319, nifenalol] | 49.56 |
| CN1CCc2nc(C(=O)N[C@@H]3C[C@@H](C(=O)N(C)C)CC[C@@H]3NC(=O)C(=O)Nc3ccc(Cl)cn3)sc2C1 [ONC0004435, edoxaban] | 125 |
| Nc1nc(OCC2CCCCC2)c2nc[nH]c2n1 [ONC0002589, nu2058] | 81.23 |

Compounds above that contain a carbonyl joined to an NH by a bond outside any ring:

| Compound | % viability [%] |
| --- | --- |
| CC(=O)NC[C@H]1CN(c2ccc(N3CCOCC3)c(F)c2)C(=O)O1 [ONC0002450, linezolid] | 98.01 |
| CCCCCCOc1ccccc1C(N)=O [ONC0002422, exalamide] | 94.69 |
| Cc1sc2c(c1C)C(c1ccc(Cl)cc1)=N[C@@H](CC(N)=O)c1nnc(C)n1-2 [ONC0001837, cpi203] | 75.28 |
| CCN(CC)CCNC(=O)c1ccc(N)cc1 [ONC0000458, procainamide hydrochloride] | 68.3 |
| C=C[C@]1(C)C[C@@H](OC(=O)CSC(C)(C)CNC(=O)[C@H](N)C(C)C)[C@]2(C)[C@H](C)CC[C@]3(CCC(=O)[C@H]32)[C@@H](C)[C@@H]1O [ONC0004321, valnemulin hcl] | 125.1 |
| CCOC(=O)Nc1c[n+](N2CCOCC2)no1 [ONC0000636, molsidomine] | 75.33 |
| O=C(O)C1=C(CSc2nnnn2CS(=O)(=O)O)CS[C@@H]2[C@H](NC(=O)[C@H](O)c3ccccc3)C(=O)N12 [ONC0002051, cefonicid sodium] | 74.35 |
| COc1ccc(C(=O)Nc2c(Cl)cncc2Cl)cc1OC1CCCC1 [ONC0004409, piclamilast] | 122.5 |
| Cc1ccc(NC(=O)CCCCCC(=O)Nc2ccccc2N)cc1 [ONC0002492, tch106] | 70.05 |
| CC1(C)S[C@@H]2[C@H](NC(=O)C(C(=O)O)c3ccsc3)C(=O)N2[C@H]1C(=O)O (stereo partly shown) [ONC0001093, ticarcillin disodium] | 54.99 |
| COCCNC(=O)COc1ccc(OCCNC[C@H](O)COc2ccccc2)cc1 [ONC0001450, zd7114] | 94.55 |
| CN1CCc2nc(C(=O)N[C@@H]3C[C@@H](C(=O)N(C)C)CC[C@@H]3NC(=O)C(=O)Nc3ccc(Cl)cn3)sc2C1 [ONC0004435, edoxaban] | 125 |

Some of these compounds in order of molar mass, smallest number first.

| Compound | % viability [%] |
| --- | --- |
| Cc1ccc(-c2cc(C(F)(F)F)nn2-c2ccc(S(N)(=O)=O)cc2)cc1 [ONC0002376, celecoxib] | 59.93 |
| CCCCC1(C2CCCC2)Cc2cc(OCCCC(=O)O)c(Cl)c(Cl)c2C1=O (stereo not shown) [ONC0002519, dcpib] | 87.12 |
| OC[C@H]1O[C@@H](O[C@@H]2[C@H](O)[C@@H](O)[C@H](O[C@H]3[C@H](O)[C@@H](O)C(O)O[C@@H]3CO)O[C@@H]2CO)[C@H](O)[C@@H](O)[C@H]1O (stereo partly shown) [ONC0004130, 4galactosyllactose] | 126.3 |

More entries.

| Compound | % viability [%] |
| --- | --- |
| OCCn1cc(-c2ccc3c(c2)CC/C3=N\O)c(-c2ccncc2)n1 [ONC0001470, gdc0879] | 74.46 |
| CC[C@H]1OC(=O)[C@H](C)[C@@H](O[C@H]2C[C@@](C)(OC)[C@@H](O)[C@H](C)O2)[C@H](C)[C@@H](O[C@@H]2O[C@H](C)C[C@H](N(C)C)[C@H]2O)[C@](C)(O)C[C@@H](C)CN(C)[C@H](C)[C@@H](O)[C@]1(C)O [ONC0002760, azithromycin] | 120.4 |
| COC1[C@@H](O)[C@@H](O)C(O)[C@H](O)[C@H]1O (stereo partly shown) [ONC0004122, dpinitol] | 134.1 |
| CCOC(=O)C1=C(C)NC(=S)NC1c1cccc(O)c1 (stereo not shown) [ONC0001463, monastrol] | 76.62 |
| CN(C)C(=O)CCSC(SCCC(=O)O)c1cccc(/C=C/c2ccc3ccc(Cl)cc3n2)c1 (stereo not shown) [ONC0000871, mk571 sodium salt] | 101.7 |
| C[C@@H]1CCC[C@H](C)N1NC(=O)c1ccc(Cl)c(S(N)(=O)=O)c1 [ONC0004337, clopamide] | 94.67 |
| COC(=O)[C@H](Cc1ccccc1)NC(=O)[C@@H](N)CC(=O)O [ONC0004175, aspartame] (H-Asp-Phe-OMe) | 88.61 |
| C[C@H]1CC[C@@]2(OC1)O[C@H]1C[C@H]3[C@@H]4CC[C@@H]5C[C@@H](O)CC[C@]5(C)[C@H]4CC[C@]3(C)[C@H]1[C@@H]2C [ONC0005459, sarsasapogenin] | 108.9 |
| CCS(=O)(=O)c1cccc(-c2cc(C(=O)NC3CCN(C)CC3)c(C)c3[nH]c4ncc(C)cc4c23)c1 [ONC0004401, tak901] | 123.3 |
| O=C(/C=C/c1ccc(O)c(O)c1)O[C@H](Cc1ccc(O)c(O)c1)C(=O)O [ONC0000055, rosmarinicacid] | 73.97 |
| Cc1cccc(C)c1-n1c(=O)c2cnc(Nc3ccc(N4CCN(C)CC4)cc3)nc2n2c3ccccc3nc12 [ONC0001343, tcs7003] | 88.83 |
| NC(=O)C1CCCc2c1[nH]c1ccc(Cl)cc21 (stereo not shown) [ONC0004691, ex 527] | 91.88 |
| C[C@@H](N)Cc1c[nH]cn1 [ONC0001667, alphamethylhistaminedihydrobromider] | 75.04 |
| CC(C)(C)c1ccc(NC(=O)N2CCN(c3ncccc3Cl)CC2)cc1 [ONC0001531, bctc] | 71.37 |
| C=C[C@](C)(O)CC[C@@H]1[C@@]2(C)CCCC(C)(C)[C@@H]2CC[C@@]1(C)O [ONC0004942, sclareol] | 82.31 |
| O=C(O)c1c2ccccc2cc2ccccc12 [ONC0001651, 9anthracenecarboxylicacid] | 71.02 |
| COc1ccc(-c2cc(=O)c3c(O)c(OC)c(O)cc3o2)cc1OC [ONC0000908, eupatilin] | 85.5 |
| Cc1ccccc1N=Nc1ccc(N=Nc2c(O)ccc3ccccc23)c(C)c1 [ONC0003430, solvent red 24] | 74.44 |
| Cc1cc(Oc2ccc3nc(COc4ccc(CC5SC(=O)NC5=O)cc4)n(C)c3c2)cc(C)c1N (stereo not shown) [ONC0001010, inolitazone dihydrochloride] | 82.01 |
